Library screening results

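Viability assay of Plasmodium falciparum sporozoites; the read-out is not stated. The concentration is filed as 10 mM, unlikely as a test dose, so the dose is not known. Direction is inferred from retests: higher values go with lower viability. Strong results were mostly tested again. About 34,000 compounds were tested under these conditions; 0.84% (about 280) showed 50% or more at least once.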

The filed quantity is “Percent Effect” (%).
How 0% and 100% were set is not recorded. Most values in the screen are low, and negative values occur.
Compounds were drawn at random from those tested, without regard to their results.
Two or more numbers in one place are separate tests of the same structure; such repeats can differ widely.

Cc1cnn(CC2CCCCN2C(=O)Cc2cn3ccsc3n2)c1 (stereo not drawn) read 0.1346%.
CN(C)c1ncc(CN2CCOC(C(=O)Nc3ccccc3)C2)cn1 (stereo not drawn) read -9.804%.
CN(Cc1ccc(F)cc1C#N)CC(F)(F)F read 2.514%.
CN(C)c1nc2c(c(N3CCc4ccccc4C3)n1)CCNC2 read 6.667%.
CN(Cc1ccon1)C(=O)C1CC(=O)N(Cc2ccncc2)C1 (stereo not drawn) read 5.536%.
COCCSCC(=O)NCc1ccc(N(C)C)nc1 read -11.4%.
O=C(N1CCCC1)N1CCC2(CC1)C(=O)N(CC1CC1)c1ccccc12 read 6.743%.
Cc1nc(CN2CCC3(CCCN(Cc4ccoc4)C3)C2=O)cs1.O=C(O)C(F)(F)F.O=C(O)C(F)(F)F (stereo not drawn) read 2.192%.
Cc1nc(CN2CCN(c3ccc(SC(C)C)nn3)CC2)cs1 read 8.672%.
O=C(O)C(F)(F)F.[H][C@@]12CCN(Cc3c(C)noc3C)C[C@]1(C(=O)N(C)C)CCO2 read -25.56%.
[H][C@@]12CCN(c3ncccn3)C[C@]1(C(=O)NCc1cnc(C)cn1)CCO2 read 10.29%.
COc1ccc(CC(=O)NC2(C)CCS(=O)(=O)C2)cc1F (stereo not drawn) read -16.42%.
CCc1nc(CN2CCOC(Cn3nc(C)nc3C)C2)no1 (stereo not drawn) read -9.046%.
COc1cccc(CN(Cc2ccco2)Cc2cnc(C)n2C)c1.O=C(O)CC(O)(CC(=O)O)C(=O)O read 17.69%.
O=C(NCCO)c1cc(-c2ccc3c(c2)CCO3)n[nH]1 read -39.76% and -24.53%.
CCc1nc(C)c(C(=O)NCCN2CCN(C(C)=O)CC2)s1 read 4.8%.
CN(CC1(O)CCCCC1)C1CCCN(Cc2noc(C3CC3)n2)C1 (stereo not drawn) read 4.971%.
Cl.NC(=O)c1ccc(C2CCCNC2)nc1 (stereo not drawn) read -4.706%.
Nc1nccc(-c2cccc3ccnn23)n1 read -36.83% and -30.68%.
CS(=O)(=O)c1cc(Cl)cnc1C1CCN(C(=O)C2CCOCC2)CC1 read 7.77%.
CCS(=O)(=O)N1CCC(Nc2ccc(C#N)cc2F)CC1 read 3.2%.
NC(=O)c1cccc(C(=O)N2CCCC(n3ccnc3)C2)c1 (stereo not drawn) read 1.016%.
Cc1ccc(-c2nnc(CNCCn3cccn3)o2)cc1 read 3.911%.
CN(C)c1ccccc1C(=O)N1C[C@@H](CN2CCCCC2)[C@@H](CO)C1 read 0.7277%.
Cc1ccc2c(c1)C(=O)NCC1(CCN(C(=O)c3ccccn3)CC1)O2 read 9.045%.
CCc1ccc(NC(=O)c2cnc(N3CCN(C)CC3)nc2C)cc1 read 2.123%.
Cc1cc(C)n(-c2ccccc2NC(=O)NCCS(=O)(=O)CC(C)C)n1 read -124.2%.
c1ccc2c(c1)CCN(c1nc(-c3ccncc3)nc3c1CCNC3)C2 read 10.35%.
O=C(NCCCn1ccccc1=O)c1cnc(-c2ccsc2)s1 read -14.71%.
Cc1nc(CNC(=O)NCC(O)c2ccccc2)cs1 (stereo not drawn) read 14.04% and 35.63% and 15.9%.
CC(Cn1ccnc1)NC(=O)Nc1ccccn1 (stereo not drawn) read 2.742%.
Cc1cccc(N2CCC3(CCCN(C(=O)c4cccnc4)C3)C2)n1.O=C(O)C(F)(F)F.O=C(O)C(F)(F)F (stereo not drawn) read 3.342%.
CCOCc1nn(CC2CC2)c2c1CN(Cc1cccs1)CC2.O=C(O)C(F)(F)F.O=C(O)C(F)(F)F read 6.48%.
CC(NC(=O)c1cccs1)C(=O)NCc1cccnc1N1CCCCC1 (stereo not drawn) read 5.56%.
COc1cc(CNc2nc(N3CCOCC3)ns2)cc(OC)c1OC read -3.259%.
COc1cccc(CN(C)C(=O)CN2CCN(CCO)CC2)c1 read -1.073%.
CC(=O)N1CCCC1c1ccc(Br)cn1 (stereo not drawn) read -2.655%.
Cc1cc(C)c(CNC(=O)NCC2CCCO2)c(=O)[nH]1 (stereo not drawn) read -2.473%.
COc1ccc(C(=O)N2CCCC(n3cncn3)C2)nn1 (stereo not drawn) read 4.7%.
CC(=O)NCC(=O)N1CCC2(COCc3c(C)nc(N(C)C)nc32)C1 (stereo not drawn) read 2.954%.
Cc1cc(-c2cnc(N(C)C)nc2C2CCCCN2C(=O)C2CC2)on1 (stereo not drawn) read 7.381%.
CC(=O)N(C)Cc1ccccc1NCc1c(C)cccc1C read 1.302%.
COCCn1ccnc1C1CCN(C(=O)CSc2nnc(C)o2)CC1 read 3.72%.
CN1CCN(Cc2cccc(C#N)c2)Cc2cccnc21.O=C(O)C(F)(F)F.O=C(O)C(F)(F)F read -8.918%.
O=C(NCCn1ccnc1)C1(c2ccc3c(c2)OCCO3)CCCC1 read -3.886%.
CN1CCN(c2cc(CNC(=O)c3ccc(=O)[nH]n3)ccn2)CC1 read 9.501%.
CN(CCO)C[C@@H]1CN(C(=O)c2c(F)cccc2Cl)C[C@@H]1CO read 5.453%.
Fc1ccc(-c2nnc(CNC3CCc4ncnn4C3)o2)cc1 (stereo not drawn) read -13.06%.
N#CC1(C(=O)N2CCN(Cc3cscn3)CC2)CCCCC1 read 6.242%.
O=C(NCCC1=CCCCC1)c1ccc(-n2cccc2)nc1 read -16.37%.

Some entries from above, unchanged:

{"structure": "O=C(N1CCCC1)N1CCC2(CC1)C(=O)N(CC1CC1)c1ccccc12", "Percent Effect": 6.743}
{"structure": "CC(=O)NCC(=O)N1CCC2(COCc3c(C)nc(N(C)C)nc32)C1", "stereo": "stereo not drawn", "Percent Effect": 2.954}
{"structure": "CCc1nc(C)c(C(=O)NCCN2CCN(C(C)=O)CC2)s1", "Percent Effect": 4.8}
{"structure": "CN1CCN(Cc2cccc(C#N)c2)Cc2cccnc21.O=C(O)C(F)(F)F.O=C(O)C(F)(F)F", "Percent Effect": -8.918}
{"structure": "COc1ccc(CC(=O)NC2(C)CCS(=O)(=O)C2)cc1F", "stereo": "stereo not drawn", "Percent Effect": -16.42}

Measurements from “University of Dundee, Small-Polar-MMV Screening Library” (2021), ChEMBL document CHEMBL3988442.